Among the data in PMC5296754 are binding values, retold here.

Chains of the proteins cited; added tags and fusions are not shown. Residues count along the entry.
UniProt P13128, 39-526: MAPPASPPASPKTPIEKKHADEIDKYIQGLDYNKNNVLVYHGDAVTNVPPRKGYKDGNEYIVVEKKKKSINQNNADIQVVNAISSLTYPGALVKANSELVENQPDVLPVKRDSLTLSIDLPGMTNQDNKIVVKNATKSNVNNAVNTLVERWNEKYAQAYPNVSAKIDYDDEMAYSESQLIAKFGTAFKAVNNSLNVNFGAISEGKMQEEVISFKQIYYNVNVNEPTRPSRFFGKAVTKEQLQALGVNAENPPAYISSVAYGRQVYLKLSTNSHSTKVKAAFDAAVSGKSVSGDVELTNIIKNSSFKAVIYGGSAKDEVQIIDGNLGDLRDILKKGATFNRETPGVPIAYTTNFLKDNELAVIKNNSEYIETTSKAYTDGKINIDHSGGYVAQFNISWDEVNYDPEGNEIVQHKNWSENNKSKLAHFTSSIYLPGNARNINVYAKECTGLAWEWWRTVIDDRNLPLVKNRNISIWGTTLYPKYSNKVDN

Experiment [1] concerns the target Listeriolysin O (Listeria monocytogenes) (UniProt P13128). Description: high-speed atomic force microscopy; 500 nM protein added to POPC:Chol 1:1 supported lipid bilayer on mica; 20 mM MES, pH 5.6, 100 mM NaCl, 5 mM MgCl2, room temperature; oligomers on the membrane; both purified.
Experiment [2] shares this target. Description: transmission electron microscopy (negative stain); 500 nM protein with POPC:Chol multilamellar vesicles (10 mM lipids), 10 mM MES, 150 mM NaCl, pH 5.5, room temperature; contrasted with 1% uranyl acetate; oligomers on the membrane; both purified.

Results are given in words; binding and its absence hold for the method and conditions named. Some binding calls cover weakened binding; strength is not graded here.

Consider “Listeriolysin O (from UniProt P13128 39-526)”, for which the binding entry in experiment [1] and in experiment [2] was “binds” throughout.
